Reference: patent US6930208B2, “3-Keto- or 3- oxime-ether-substituted benzoylcyclohexanediones” (Bayer CropScience GmbH, priority 2002, dated 2005)
Some entries share one result that the patent states for a list of compounds. Some compounds share one range, which may span the group rather than tell each member.

Tests used:
Assay in all cases: Post-emergence herbicidal action against harmful plants
Assay type in all cases: in vivo
Settings in all cases: 320 g/ha, visual scoring after 3 to 4 weeks
Veronica persica = tested on: Veronica persica
Echinocloa crus galli = tested on: Echinocloa crus galli
Chenopodium album = tested on: Chenopodium album

CC1(C)CC(=O)C(C(=O)c2ccc(S(C)(=O)=O)c(OCC(=O)C(C)(C)C)c2Cl)=C(O)C1 [Example 1.8]
90-100%: activity against Veronica persica (Veronica persica) | activity against Echinocloa crus galli (Echinocloa crus galli) | activity against Chenopodium album (Chenopodium album)
